These are yes or no findings as the source states them, for the method shown. Binding seen in cells or lysates may run through a third protein. Some entries that bind do so weakly or less than the wild type. For some assays here: Where a sequence is shown, tags or fusion partners need not be part of it.
What was measured:
[1] = molecular target: T1, endogenous LGSN (lengsin, lens protein with glutamine synthetase domain) (human (endogenous in GCSC1)) (UniProt Q5TDP6); experiment: co-IP; co-immunoprecipitation of endogenous LGSN and vimentin from GCSC1 cells, western blot
T1 sequence: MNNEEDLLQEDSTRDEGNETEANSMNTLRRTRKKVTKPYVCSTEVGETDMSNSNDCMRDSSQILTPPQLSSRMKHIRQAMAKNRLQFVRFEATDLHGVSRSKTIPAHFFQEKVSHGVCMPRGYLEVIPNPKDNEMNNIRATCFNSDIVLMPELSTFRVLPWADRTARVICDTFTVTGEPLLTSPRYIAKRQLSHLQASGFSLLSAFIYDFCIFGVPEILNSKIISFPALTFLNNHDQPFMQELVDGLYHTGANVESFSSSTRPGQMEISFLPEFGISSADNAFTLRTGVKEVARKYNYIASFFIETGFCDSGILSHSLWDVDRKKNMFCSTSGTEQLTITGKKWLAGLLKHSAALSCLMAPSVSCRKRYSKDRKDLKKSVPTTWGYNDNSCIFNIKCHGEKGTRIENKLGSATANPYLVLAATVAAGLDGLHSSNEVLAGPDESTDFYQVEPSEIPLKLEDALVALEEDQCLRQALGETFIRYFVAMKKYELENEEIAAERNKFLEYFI

Protein sequences, listed by entry. Tags and fused reporters are not part of them.
UniProt P08670: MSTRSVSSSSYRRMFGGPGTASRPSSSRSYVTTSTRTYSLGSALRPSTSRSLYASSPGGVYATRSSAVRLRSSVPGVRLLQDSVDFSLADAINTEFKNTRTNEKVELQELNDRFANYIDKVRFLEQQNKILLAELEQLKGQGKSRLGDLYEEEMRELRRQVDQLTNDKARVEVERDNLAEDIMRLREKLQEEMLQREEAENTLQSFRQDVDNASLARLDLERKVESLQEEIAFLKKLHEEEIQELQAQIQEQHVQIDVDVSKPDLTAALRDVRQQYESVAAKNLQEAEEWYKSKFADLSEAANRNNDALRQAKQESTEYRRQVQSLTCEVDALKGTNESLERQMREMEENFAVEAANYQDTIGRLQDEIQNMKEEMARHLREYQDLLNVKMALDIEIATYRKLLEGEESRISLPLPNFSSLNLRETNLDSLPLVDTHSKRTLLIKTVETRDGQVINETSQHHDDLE

[2] = molecular target: T2, Flag-tagged LGSN (lengsin, lens protein with glutamine synthetase domain) (human) (UniProt Q5TDP6); experiment: co-IP; Flag pull-down of Flag-tagged LGSN from cell lysate, western blot for vimentin
T2 sequence: T1 sequence

vimentin (from UniProt P08670 1-466)
binding [1]: binds | binding [2]: binds
